Reference: patent US20100274022A1, “G PROTEIN-COUPLED RECEPTOR INHIBITOR AND PHARMACEUTICAL PRODUCT” (PHARMAFRONTIER CO., LTD., priority 2007, published 2010)
Some results were stated once for a whole list of compounds, not compound by compound.

Target: T1, humanGPR120 (Homo sapiens, UniProt Q5NUL3)
T1 construct: expressed in transfected cells
T1 sequence (Q5NUL3 1-377 isoform Q5NUL3-1 R67C/Q274H/I297T): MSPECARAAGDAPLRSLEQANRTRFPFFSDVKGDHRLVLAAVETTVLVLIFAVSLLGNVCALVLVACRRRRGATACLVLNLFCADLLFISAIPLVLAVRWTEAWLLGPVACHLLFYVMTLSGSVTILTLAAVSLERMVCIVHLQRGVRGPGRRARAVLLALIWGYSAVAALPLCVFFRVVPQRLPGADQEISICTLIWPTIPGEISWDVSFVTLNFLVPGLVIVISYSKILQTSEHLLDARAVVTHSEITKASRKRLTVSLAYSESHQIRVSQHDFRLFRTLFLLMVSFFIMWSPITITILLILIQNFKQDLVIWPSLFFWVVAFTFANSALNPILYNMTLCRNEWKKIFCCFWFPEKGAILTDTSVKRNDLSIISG
Assay: Inhibitory effect on activation (antagonistic activity): α-LA-stimulated increase in intracellular Ca2+ concentration measured by FLIPR in cells comprising GPR120
Format: cell-based
Conditions: 10 min pre-treatment with test compound, then α-LA (cis type) stimulation; 1 minus normalized Ca2+ concentration

## (E)-3-{3-[2-(2-nonylpyridinylamino)ethoxy]phenyl}acrylic acid [ATG-19]
  inhibitory effect (inhibitory level) on activation of the cells comprising GPR120 (normalized value): ≥ 0.5
